Results published in patent publication US20050042747A1, “Hivgp120-induced bob/gpr15 activation” (priority 2001, published 2005).
For part of these data: For at least one compound, name, drawing or mass did not settle the structure. Some entries share one result that the patent states for a list of compounds.

Key:
[1] = tested on: HT-29 cells; experiment: Calcium signaling in HT-29 cells (Fluo 4, confocal microscope); format: cell-based, human
Experimental: HT-29 cells (from ATCC) were grown in DMEM-F12 with 10% bovine calf serum, and were used 24-48 hours after plating. The Ghost (3) cells were obtained from the AIDS Research and Reference Reagent Program, and were grown DMEM with 10% bovine calf serum supplemented with 500 μg/ml G418, 100 μg/ml hygromycin, and 1 μg/ml puromycin.^27 These cells were used 24 to 96 hours after plating.
Calcium studies were done on HT-29 cells and Ghost (3) cells loaded with Fluo 4. The cells were placed in Locke's buffer containing 5 μg/ml Fluo 4 AM ester (Molecular Probes) for 20 to 30 minutes, then in Locke's buffer for an additional 30 minutes before testing. Various concentrations of gp120IIIB (X4 trophic), gp120CM235 (R5 trophic), gp120mN (X4 trophic), gp12093TH975 (nonsyncytium-inducing primary isolate from an asymptomatic subject, trophism undetermined but likely R5), and gp120SF2 (X4R5 trophic), ranging from 10 nM to less than 1 pM, were added in Locke's buffer.^6 The gp120 proteins were obtained from the AIDS Research Reagent Referral Program. Some HT-29 cells were given one of the following pretreatments: 50 μg/ml anti-Bob37 overnight, 1 μg/ml pertussis toxin overnight, or 4.6 μg/ml U73122 for one hour. With the HT-29 cells only, similar tests were also performed with SDF-1, MIP-1α, MIP-1β, and RANTES rather than gp120. […]

[2] = tested on: cAMP-dependent chloride secretion through CFTR; experiment: Chloride secretion (short-circuit current) in HT-29-D4 cells; format: cell-based, human

gp120IIIB: HIV-1 envelope surface protein gp120 of strain IIIB (X4 trophic), from the AIDS Research Reagent Referral Program
time to increase in free calcium ([1]; HT-29 cells, visualized every 4 seconds): ≤ 4 s

gp120SF2: gp120 of HIV strain SF2 (X4R5 trophic)
minimal concentration causing calcium signaling ([1]; undifferentiated HT-29 cells, serial dilution): > 10 nM

C=C[C@@]1(C)CC(=O)[C@]2(O)[C@@]3(C)[C@@H](O)CCC(C)(C)[C@@H]3[C@H](O)[C@H](OC(C)=O)[C@@]2(C)O1 [forskolin]
effect on short-circuit current (chloride secretion), in words [2]: dramatic increase of the short-circuit current
